Data from publication PMC10622508.
Results are given in words; binding and its absence hold for the method and conditions named. In cells and extracts the contact can be indirect. Some binding calls cover weakened binding; strength is not graded here. For some of these results: Tags and fused reporters may be left off the sequences shown.

Protein sequences, listed by entry. Tags and fused reporters are not part of them.
UniProt Q13164: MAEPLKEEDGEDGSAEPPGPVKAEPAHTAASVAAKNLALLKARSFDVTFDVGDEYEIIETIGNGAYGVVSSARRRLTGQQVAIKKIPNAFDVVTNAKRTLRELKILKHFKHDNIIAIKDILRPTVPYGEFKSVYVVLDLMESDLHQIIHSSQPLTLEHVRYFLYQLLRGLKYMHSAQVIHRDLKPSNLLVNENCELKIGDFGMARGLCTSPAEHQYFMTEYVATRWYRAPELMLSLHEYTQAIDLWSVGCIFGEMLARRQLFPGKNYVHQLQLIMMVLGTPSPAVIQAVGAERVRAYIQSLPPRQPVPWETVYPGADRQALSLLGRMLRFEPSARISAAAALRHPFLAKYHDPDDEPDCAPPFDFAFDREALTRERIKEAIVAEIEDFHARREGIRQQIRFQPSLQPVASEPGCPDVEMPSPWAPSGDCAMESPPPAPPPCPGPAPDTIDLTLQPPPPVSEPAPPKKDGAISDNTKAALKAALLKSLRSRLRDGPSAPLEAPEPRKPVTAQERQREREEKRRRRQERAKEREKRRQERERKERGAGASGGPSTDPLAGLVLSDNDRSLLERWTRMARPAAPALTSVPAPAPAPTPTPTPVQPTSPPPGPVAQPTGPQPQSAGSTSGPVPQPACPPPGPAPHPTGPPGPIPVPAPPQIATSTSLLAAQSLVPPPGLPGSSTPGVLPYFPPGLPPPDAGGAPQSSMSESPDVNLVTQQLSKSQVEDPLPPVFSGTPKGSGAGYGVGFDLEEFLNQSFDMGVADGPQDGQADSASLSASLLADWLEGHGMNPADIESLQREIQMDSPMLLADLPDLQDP
UniProt Q14790: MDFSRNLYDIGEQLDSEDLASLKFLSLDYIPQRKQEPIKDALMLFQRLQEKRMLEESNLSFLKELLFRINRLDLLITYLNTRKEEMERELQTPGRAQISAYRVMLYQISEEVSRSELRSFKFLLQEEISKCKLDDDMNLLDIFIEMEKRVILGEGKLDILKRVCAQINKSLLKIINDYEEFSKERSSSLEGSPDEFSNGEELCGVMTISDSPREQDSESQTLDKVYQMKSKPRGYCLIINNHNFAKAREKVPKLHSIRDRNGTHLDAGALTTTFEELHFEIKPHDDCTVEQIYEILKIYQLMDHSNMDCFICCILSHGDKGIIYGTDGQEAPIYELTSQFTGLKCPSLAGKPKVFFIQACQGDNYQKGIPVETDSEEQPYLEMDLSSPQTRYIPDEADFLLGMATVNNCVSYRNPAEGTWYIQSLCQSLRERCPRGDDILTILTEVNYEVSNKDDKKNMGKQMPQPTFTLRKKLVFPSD

T1: FLAG-tagged human TP53INP2 (wild type) (human) (UniProt Q8IXH6)
T1 sequence: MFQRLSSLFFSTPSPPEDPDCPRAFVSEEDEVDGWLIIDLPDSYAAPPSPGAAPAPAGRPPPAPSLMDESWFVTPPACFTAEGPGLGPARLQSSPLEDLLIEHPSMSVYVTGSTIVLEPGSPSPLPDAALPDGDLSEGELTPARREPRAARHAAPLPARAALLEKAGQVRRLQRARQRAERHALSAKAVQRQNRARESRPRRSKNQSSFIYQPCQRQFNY


Tests used:
[1] = target: T1, FLAG-tagged human TP53INP2 (wild type) (human); test: co-IP; FLAG-TP53INP2 immunoprecipitated (anti-FLAG-M2 affinity beads) from lysates of HEK293T cells treated with vehicle or 3 uM JWG-071 for 6 h; Caspase-8 detected by immunoblot; NP-40 buffer
[2] = target: MAP kinase ERK5 (endogenous) (human (endogenous in Ishikawa)) (UniProt Q13164); test: co-IP; 1 mg Ishikawa cell lysate immunoprecipitated with anti-ERK5 antibody on protein G-sepharose, 2 h at 4 C, NP-40 buffer; endogenous TP53INP2 and ERK5 detected by immunoblot
[3] = target: GST-tagged human ERK5 (WT) (human) (UniProt Q13164); test: co-IP; lysates of cells overexpressing GST-tagged ERK5 and FLAG-tagged TP53INP2 (wild type or 3A); anti-FLAG-M2 affinity beads or glutathione-Sepharose beads; which protein was the bait is not given

binding [3]	Molecule	other results
–	Caspase-8 (from UniProt Q14790 1-479)	binding [1]: binds
–	TP53INP2 (endogenous) (protein, UniProt Q8IXH6 1-220) MFQRLSSLFFSTPSPPEDPDCPRAFVSEEDEVDGWLIIDLPDSYAAPPSPGAAPAPAGRPPPAPSLMDESWFVTPPACFTAEGPGLGPARLQSSPLEDLLIEHPSMSVYVTGSTIVLEPGSPSPLPDAALPDGDLSEGELTPARREPRAARHAAPLPARAALLEKAGQVRRLQRARQRAERHALSAKAVQRQNRARESRPRRSKNQSSFIYQPCQRQFNY	binding [2]: binds
binds	FLAG-tagged human TP53INP2 (wild type) (protein, UniProt Q8IXH6 1-220) MFQRLSSLFFSTPSPPEDPDCPRAFVSEEDEVDGWLIIDLPDSYAAPPSPGAAPAPAGRPPPAPSLMDESWFVTPPACFTAEGPGLGPARLQSSPLEDLLIEHPSMSVYVTGSTIVLEPGSPSPLPDAALPDGDLSEGELTPARREPRAARHAAPLPARAALLEKAGQVRRLQRARQRAERHALSAKAVQRQNRARESRPRRSKNQSSFIYQPCQRQFNY	–
binds	FLAG-tagged human TP53INP2-S49A/S65A/T74A (protein, UniProt Q8IXH6 1-220) MFQRLSSLFFSTPSPPEDPDCPRAFVSEEDEVDGWLIIDLPDSYAAPPAPGAAPAPAGRPPPAPALMDESWFVAPPACFTAEGPGLGPARLQSSPLEDLLIEHPSMSVYVTGSTIVLEPGSPSPLPDAALPDGDLSEGELTPARREPRAARHAAPLPARAALLEKAGQVRRLQRARQRAERHALSAKAVQRQNRARESRPRRSKNQSSFIYQPCQRQFNY	–
